From patent US20160271230A1 (UNIVERSITY HEALTH NETWORK, published 2016)
These are yes or no findings as the source states them, for the method shown. Sequences can lack the tags named with a protein.

Biological target: 4Ig domain of DCC
Assay: plate binding assay, N-Raft-AP on wells coated with DCC-4Ig (FIG. 9C)

- binding: no binding
Binder: SPCKILKCNSEFWAATSGSHHLGAEETPEFCTALRAYAHCTRRTAR (peptide, not shown: large carriers) [N-Raft fused with alkaline phosphatase]
